# From the supplement of paper PMC12067093, “Discovery and optimisation of a covalent ligand for TRIM25 and its application to targeted protein ubiquitination” (Chemical Science, 2025)
# The chains behind the UniProt entries cited, without tags or fusion partners. Where a name states a change or a piece, a line headed by the entry shows the natural chain unless it says otherwise.
# UniProt Q9P2J5: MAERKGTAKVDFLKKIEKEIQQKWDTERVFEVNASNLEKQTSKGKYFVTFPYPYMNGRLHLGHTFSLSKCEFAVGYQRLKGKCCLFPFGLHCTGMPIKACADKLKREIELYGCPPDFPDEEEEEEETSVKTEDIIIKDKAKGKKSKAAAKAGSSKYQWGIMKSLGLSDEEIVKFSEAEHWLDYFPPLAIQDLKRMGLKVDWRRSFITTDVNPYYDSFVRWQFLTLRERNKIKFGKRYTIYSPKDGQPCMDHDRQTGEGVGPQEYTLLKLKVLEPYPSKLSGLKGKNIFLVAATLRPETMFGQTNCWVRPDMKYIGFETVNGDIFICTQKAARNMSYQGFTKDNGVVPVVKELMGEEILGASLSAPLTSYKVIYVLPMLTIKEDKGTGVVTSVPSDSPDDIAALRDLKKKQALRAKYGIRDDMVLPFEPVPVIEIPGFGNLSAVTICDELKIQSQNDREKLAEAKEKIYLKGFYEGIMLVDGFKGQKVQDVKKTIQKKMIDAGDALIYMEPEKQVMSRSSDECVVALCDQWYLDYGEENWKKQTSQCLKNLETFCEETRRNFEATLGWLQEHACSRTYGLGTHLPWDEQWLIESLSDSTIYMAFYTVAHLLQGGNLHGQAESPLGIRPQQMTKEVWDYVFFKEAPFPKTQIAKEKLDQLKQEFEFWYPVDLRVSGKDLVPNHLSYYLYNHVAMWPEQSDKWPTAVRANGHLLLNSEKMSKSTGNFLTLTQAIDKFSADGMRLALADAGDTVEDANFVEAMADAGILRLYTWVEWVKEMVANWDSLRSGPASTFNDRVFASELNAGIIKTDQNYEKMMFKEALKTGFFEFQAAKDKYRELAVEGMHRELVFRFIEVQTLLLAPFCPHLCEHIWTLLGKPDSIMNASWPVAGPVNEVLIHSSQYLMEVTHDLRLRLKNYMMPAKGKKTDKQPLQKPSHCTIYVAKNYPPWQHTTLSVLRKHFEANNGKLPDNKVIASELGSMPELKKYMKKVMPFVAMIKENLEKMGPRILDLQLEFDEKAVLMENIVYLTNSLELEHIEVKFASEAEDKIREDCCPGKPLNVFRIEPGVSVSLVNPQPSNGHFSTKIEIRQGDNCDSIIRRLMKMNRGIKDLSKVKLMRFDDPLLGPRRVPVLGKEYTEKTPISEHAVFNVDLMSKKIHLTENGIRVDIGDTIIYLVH
# UniProt Q96EM0: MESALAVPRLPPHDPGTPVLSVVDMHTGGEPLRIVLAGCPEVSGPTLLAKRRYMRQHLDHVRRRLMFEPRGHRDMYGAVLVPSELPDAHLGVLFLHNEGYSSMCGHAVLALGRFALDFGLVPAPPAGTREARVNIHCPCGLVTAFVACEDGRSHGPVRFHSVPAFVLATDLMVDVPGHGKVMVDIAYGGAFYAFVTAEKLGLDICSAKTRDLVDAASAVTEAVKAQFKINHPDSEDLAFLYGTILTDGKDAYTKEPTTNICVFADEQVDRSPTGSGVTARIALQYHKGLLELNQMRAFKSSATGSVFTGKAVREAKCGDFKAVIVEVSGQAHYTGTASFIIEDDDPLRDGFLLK
# UniProt Q86Y97: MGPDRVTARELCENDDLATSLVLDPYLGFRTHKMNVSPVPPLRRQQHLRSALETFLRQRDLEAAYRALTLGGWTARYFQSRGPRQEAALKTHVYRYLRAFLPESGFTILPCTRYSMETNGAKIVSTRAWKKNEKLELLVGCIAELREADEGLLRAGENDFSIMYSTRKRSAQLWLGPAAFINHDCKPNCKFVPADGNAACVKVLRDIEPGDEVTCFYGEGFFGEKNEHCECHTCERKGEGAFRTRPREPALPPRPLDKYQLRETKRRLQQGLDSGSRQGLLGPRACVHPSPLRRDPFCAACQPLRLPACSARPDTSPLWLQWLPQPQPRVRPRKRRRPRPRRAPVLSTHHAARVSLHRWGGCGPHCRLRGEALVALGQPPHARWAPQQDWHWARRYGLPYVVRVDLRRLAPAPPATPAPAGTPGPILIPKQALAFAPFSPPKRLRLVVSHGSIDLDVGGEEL
# UniProt Q9Y4W2: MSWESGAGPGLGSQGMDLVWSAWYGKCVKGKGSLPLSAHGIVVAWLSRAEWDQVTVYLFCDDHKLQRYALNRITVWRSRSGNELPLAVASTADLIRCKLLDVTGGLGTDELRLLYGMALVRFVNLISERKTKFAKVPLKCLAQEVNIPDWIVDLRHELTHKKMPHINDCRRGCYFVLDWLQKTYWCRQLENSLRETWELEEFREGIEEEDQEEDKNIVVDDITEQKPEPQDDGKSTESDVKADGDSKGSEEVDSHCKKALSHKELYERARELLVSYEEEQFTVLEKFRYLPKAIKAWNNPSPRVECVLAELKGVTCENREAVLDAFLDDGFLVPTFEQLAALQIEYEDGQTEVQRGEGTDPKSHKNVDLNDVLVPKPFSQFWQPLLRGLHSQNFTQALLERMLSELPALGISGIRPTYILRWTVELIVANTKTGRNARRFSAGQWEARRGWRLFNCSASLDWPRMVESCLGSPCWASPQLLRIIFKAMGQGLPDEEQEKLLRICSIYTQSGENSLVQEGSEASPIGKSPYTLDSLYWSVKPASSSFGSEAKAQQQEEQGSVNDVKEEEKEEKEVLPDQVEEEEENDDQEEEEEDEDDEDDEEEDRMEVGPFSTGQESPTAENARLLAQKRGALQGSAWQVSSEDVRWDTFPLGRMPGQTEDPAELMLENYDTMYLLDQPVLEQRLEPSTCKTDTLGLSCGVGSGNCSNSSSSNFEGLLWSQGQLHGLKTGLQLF
# UniProt O00629, whole entry, looked up: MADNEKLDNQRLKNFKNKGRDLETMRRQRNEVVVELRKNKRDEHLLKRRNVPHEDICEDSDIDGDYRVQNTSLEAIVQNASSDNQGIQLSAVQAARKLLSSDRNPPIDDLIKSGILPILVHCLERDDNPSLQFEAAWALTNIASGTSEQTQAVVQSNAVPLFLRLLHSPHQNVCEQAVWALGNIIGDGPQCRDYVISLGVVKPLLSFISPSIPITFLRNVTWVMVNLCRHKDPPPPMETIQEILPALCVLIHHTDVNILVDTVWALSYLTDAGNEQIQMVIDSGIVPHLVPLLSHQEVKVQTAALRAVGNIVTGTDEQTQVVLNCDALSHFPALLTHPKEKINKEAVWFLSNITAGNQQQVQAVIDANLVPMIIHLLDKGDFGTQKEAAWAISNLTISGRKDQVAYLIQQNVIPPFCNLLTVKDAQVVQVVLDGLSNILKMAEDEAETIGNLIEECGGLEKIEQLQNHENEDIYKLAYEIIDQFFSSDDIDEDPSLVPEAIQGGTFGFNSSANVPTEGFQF
# UniProt Q8TBB5: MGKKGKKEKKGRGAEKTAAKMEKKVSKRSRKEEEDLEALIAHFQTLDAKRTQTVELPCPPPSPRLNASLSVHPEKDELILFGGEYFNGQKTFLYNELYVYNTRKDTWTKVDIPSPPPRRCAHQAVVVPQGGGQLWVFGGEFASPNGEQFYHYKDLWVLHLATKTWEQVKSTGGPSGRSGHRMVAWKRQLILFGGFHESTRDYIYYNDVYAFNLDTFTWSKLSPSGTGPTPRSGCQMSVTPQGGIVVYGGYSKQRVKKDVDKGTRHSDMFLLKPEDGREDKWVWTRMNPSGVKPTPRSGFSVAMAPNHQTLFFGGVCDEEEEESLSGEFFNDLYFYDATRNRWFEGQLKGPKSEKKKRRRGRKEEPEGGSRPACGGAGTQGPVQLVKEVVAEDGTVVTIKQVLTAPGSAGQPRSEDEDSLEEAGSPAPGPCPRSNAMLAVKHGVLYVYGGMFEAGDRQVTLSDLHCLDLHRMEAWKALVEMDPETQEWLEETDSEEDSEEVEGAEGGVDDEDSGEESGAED
# UniProt P50748: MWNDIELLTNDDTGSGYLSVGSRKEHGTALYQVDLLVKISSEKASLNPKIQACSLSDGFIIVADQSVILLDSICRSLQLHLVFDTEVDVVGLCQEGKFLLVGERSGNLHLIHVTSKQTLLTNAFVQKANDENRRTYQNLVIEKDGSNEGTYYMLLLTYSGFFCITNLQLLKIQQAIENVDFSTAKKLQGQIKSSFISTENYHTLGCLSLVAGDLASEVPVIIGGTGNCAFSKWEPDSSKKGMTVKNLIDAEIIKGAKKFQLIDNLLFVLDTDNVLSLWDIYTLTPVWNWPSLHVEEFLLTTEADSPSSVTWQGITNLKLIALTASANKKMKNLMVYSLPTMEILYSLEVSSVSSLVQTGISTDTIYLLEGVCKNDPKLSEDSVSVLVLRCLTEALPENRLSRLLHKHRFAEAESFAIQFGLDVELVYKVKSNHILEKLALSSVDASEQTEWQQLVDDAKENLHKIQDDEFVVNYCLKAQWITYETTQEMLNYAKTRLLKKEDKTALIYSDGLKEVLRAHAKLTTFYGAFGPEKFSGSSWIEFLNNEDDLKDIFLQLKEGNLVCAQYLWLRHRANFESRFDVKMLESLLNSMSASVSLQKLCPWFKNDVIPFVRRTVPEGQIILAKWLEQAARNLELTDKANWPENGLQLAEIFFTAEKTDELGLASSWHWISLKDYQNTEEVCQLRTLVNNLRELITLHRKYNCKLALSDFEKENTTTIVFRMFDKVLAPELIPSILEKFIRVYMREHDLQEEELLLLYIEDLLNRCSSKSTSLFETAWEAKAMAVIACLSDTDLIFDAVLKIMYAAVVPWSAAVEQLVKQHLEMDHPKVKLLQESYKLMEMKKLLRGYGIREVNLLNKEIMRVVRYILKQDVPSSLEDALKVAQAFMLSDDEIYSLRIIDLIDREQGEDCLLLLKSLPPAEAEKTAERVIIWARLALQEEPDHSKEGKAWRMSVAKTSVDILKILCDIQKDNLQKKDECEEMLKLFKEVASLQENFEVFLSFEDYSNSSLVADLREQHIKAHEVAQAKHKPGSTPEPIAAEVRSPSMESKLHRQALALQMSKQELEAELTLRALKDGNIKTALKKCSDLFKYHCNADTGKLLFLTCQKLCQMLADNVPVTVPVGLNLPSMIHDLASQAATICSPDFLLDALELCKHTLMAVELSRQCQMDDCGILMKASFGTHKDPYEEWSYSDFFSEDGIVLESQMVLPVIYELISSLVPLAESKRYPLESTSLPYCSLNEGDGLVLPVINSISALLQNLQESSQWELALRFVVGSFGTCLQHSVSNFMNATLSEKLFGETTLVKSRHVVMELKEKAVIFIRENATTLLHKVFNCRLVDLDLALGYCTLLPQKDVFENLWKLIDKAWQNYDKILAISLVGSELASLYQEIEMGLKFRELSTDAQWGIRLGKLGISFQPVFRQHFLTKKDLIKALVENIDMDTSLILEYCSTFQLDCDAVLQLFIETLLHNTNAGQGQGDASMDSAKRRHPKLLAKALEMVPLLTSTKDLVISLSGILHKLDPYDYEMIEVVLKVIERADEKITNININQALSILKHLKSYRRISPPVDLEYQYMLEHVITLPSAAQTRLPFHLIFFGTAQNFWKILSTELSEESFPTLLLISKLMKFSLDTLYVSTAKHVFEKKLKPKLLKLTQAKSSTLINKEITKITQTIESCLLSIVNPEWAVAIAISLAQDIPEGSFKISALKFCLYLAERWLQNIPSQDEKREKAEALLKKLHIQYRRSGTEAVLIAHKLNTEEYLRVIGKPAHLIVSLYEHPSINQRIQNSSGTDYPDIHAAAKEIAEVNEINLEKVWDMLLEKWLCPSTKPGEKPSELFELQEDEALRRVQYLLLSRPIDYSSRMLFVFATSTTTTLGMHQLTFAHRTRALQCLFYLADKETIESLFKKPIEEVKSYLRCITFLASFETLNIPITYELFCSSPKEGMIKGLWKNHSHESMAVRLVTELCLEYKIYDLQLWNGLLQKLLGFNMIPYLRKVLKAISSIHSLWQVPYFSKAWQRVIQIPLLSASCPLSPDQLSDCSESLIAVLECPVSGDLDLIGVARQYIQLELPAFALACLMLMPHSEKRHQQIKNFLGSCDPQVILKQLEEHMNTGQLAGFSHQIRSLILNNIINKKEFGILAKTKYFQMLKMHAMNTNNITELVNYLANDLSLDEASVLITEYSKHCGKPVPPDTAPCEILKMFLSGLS
# UniProt Q14657: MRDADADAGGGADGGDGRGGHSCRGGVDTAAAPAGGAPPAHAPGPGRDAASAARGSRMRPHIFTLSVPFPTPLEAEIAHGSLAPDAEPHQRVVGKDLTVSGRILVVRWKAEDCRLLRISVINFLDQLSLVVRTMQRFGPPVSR
# UniProt Q9NS86: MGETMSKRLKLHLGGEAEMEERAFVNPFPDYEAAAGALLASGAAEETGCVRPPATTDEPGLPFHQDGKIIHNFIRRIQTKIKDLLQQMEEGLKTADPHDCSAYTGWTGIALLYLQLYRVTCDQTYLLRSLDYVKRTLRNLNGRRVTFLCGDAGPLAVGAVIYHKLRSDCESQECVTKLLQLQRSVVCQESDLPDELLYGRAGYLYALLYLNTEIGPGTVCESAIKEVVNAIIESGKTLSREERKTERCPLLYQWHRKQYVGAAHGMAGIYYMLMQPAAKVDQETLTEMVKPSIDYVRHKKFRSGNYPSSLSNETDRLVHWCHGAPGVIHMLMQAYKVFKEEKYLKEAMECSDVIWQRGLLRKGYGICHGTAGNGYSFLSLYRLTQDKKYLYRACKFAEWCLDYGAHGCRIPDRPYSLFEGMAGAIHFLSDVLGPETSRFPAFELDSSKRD
# This is one part of the list.
# Compound: Cc1cc(ccc1-c1ccccc1)C(=O)N1CCCN(CC1)C(=O)CCl [compound 10]
# Assay: probe-labelled cysteine peptide fold change vs DMSO (competition) (log2 fold change); higher = less target engagement (more negative = stronger competition)
# Details: 10 µM; THP-1; incubation time: 4 h
# 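Also: competitive profiling in live THP-1 cells: cysteine peptides tagged with an iodoacetamide desthiobiotin (IA-DTB) probe, intensity after compound treatment relative to DMSO-treated cells.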
row,Target,probe-labelled cysteine peptide fold change
1,LARS_Q9P2J5_554_NLETFCEETRR (UniProt Q9P2J5),-0.0731
2,LDHA_P00338_293_DDVFLSVPCILGQNGISDLVK (UniProt P00338),0.129
3,L3HYPDH_Q96EM0_39_IVLAGCPEVSGPTLLAK (UniProt Q96EM0),-0.0329
4,KMT5C_Q86Y97_231_NEHCECHTCER (UniProt Q86Y97),0.585
5,LARS_Q9P2J5_936_PSHCTIYVAK (UniProt Q9P2J5),0.0982
6,LEMD2_Q8NC56_355_VVCLESAHPR (UniProt Q8NC56),-0.216
7,KRR1_Q13601_102_ALNEHHVNATLDLIEGSMTVCTTK (UniProt Q13601),0.0847
8,KMT2D_O14686_414_EPGPLQCEAK (UniProt O14686),-0.276
9,LAS1L_Q9Y4W2_456_LFNCSASLDWPR (UniProt Q9Y4W2),0.14
10,KMT2A_Q03164_1194_CQNLQWMPSK (UniProt Q03164),-0.0227
11,KPNA4_O00629_417_KDQVAYLIQQNVIPPFCNLLTVK (UniProt O00629),0.359
12,KLHL7_Q8IXQ5_259_TVQAEPLIQDNPECLK (UniProt Q8IXQ5),0.232
13,KPNA6_O60684_253_VSPCLPVLSR (UniProt O60684),0.0596
14,KLHDC4_Q8TBB5_465_QVTLSDLHCLDLHR (UniProt Q8TBB5),-0.0743
15,KLHDC4_Q8TBB5_58_TQTVELPCPPPSPR (UniProt Q8TBB5),0.013
16,L3HYPDH_Q96EM0_205_LGLDICSAK (UniProt Q96EM0),0.162
17,KNTC1_P50748_390_CLTEALPENR (UniProt P50748),0.158
18,KIF2C_Q99661_473_SHACFQIILR (UniProt Q99661),-0.148

# Looked up above.
# L3HYPDH_Q96EM0_205_LGLDICSAK (UniProt Q96EM0) – probe-labelled cysteine peptide fold change: 0.162
# KPNA4_O00629_417_KDQVAYLIQQNVIPPFCNLLTVK (UniProt O00629) – probe-labelled cysteine peptide fold change: 0.359
# KMT5C_Q86Y97_231_NEHCECHTCER (UniProt Q86Y97) – probe-labelled cysteine peptide fold change: 0.585

# Next entries follow:

row,Target,probe-labelled cysteine peptide fold change
1,LARS_Q9P2J5_84_CCLFPFGLHCTGMPIK (UniProt Q9P2J5),-0.0226
2,LAGE3_Q14657_113_WKAEDCR (UniProt Q14657),-0.182
3,LDLR_P01130_377+379_CQCEEGFQLDPHTK (UniProt P01130),-0.198
4,LANCL2_Q9NS86_248_CPLLYQWHR (UniProt Q9NS86),-0.115
5,KPNB1_Q14974_228_HFIMQVVCEATQCPDTR (UniProt Q14974),0.0691
6,LAS1L_Q9Y4W2_306_VECVLAELK (UniProt Q9Y4W2),-0.217
7,LCMT1_Q9UIC8_250_QCDLAGVETCK (UniProt Q9UIC8),0.0905
8,L2HGDH_Q9H9P8_272_ISELSGCTPDPR (UniProt Q9H9P8),-0.165
9,LARS_Q9P2J5_573_RNFEATLGWLQEHACSR (UniProt Q9P2J5),-0.0392
10,KIF5B_P33176_302_TTIVICCSPSSYNESETK (UniProt P33176),-0.0386
11,L3MBTL2_Q969R5_554_LICVATVK (UniProt Q969R5),0.0463
12,KRIT1_O00522_297_SACEGDSELLSR (UniProt O00522),-0.207
13,LASP1_Q14847_29+32_ACFHCETCK (UniProt Q14847),0.00859
14,KMT2B_Q9UMN6_1268_HLLECER (UniProt Q9UMN6),0.0539
15,KMT2C_Q8NEZ4_417_GYHTFCLQPVMK (UniProt Q8NEZ4),0.0697
16,LDHD_Q86WU2_462_ALALHGTCTGEHGIGMGK (UniProt Q86WU2),-0.0481
17,KNTC1_P50748_980_KDECEEMLK (UniProt P50748),-0.188
18,KLHDC4_Q8TBB5_58_RTQTVELPCPPPSPR (UniProt Q8TBB5),-0.0752
